Experimental data published in the supplement of paper PMC11264405.

How the values were obtained:
Experiment in all cases: minimum inhibitory concentration
[1] = compound: C[C@@H](O)[C@H]1C(=O)N2C(C(=O)O)=C(SCCNC=N)C[C@H]12 [imipenem]
[2] = compound: CCC[C@@H]1C[C@@H](C(=O)N[C@@H]([C@H]2O[C@H](SC)[C@H](O)[C@@H](O)[C@H]2O)[C@H](C)Cl)N(C)C1 [clindamycin]
[3] = compound: C[C@@H](O)[C@H]1C(=O)N2C(C(=O)O)=C(S[C@@H]3CN[C@H](C(=O)N(C)C)C3)[C@H](C)[C@H]12 [meropenem]
[4] = compound: CCc1c(Cl)c(O)c(Cl)c(O)c1C(=O)O[C@H]1[C@H](O)[C@H](OC)[C@H](OC/C2=C\C=C\C[C@H](O)/C(C)=C/[C@H](CC)[C@@H](O[C@@H]3OC(C)(C)[C@@H](OC(=O)C(C)C)[C@H](O)[C@@H]3O)/C(C)=C/C(C)=C/C[C@@H]([C@@H](C)O)OC2=O)O[C@@H]1C [fidaxomicin]
[5] = compound: CN(C)c1cc(NC(=O)CNC(C)(C)C)c(O)c2c1C[C@H]1C[C@H]3[C@H](N(C)C)C(O)=C(C(N)=O)C(=O)[C@@]3(O)C(O)=C1C2=O [tigecycline]
[6] = compound: CO[C@H]1/C=C/O[C@@]2(C)Oc3c(C)c(O)c4c(O)c(c(/C=N/N5CCN(C)CC5)c(O)c4c3C2=O)NC(=O)/C(C)=C\C=C\[C@H](C)[C@H](O)[C@@H](C)[C@@H](O)[C@@H](C)[C@H](OC(C)=O)[C@@H]1C [rifampicin]
[7] = compound: CC(=O)NC[C@H]1CN(c2ccc(N3CCOCC3)c(F)c2)C(=O)O1 [linezolid]
[8] = compound: CN[C@H](CC(C)C)C(=O)N[C@H]1C(=O)N[C@@H](CC(N)=O)C(=O)N[C@H]2C(=O)N[C@H]3C(=O)N[C@H](C(=O)N[C@H](C(=O)O)c4cc(O)cc(O)c4-c4cc3ccc4O)[C@H](O)c3ccc(c(Cl)c3)Oc3cc2cc(c3O[C@@H]2O[C@H](CO)[C@@H](O)[C@H](O)[C@H]2O[C@H]2C[C@](C)(N)[C@H](O)[C@H](C)O2)Oc2ccc(cc2Cl)[C@H]1O [vancomycin]
[9] = compound: Cc1ncc([N+](=O)[O-])n1CCO [metronidazole]

Test System	minimum inhibitory concentration [1]	minimum inhibitory concentration [2]	minimum inhibitory concentration [3]	minimum inhibitory concentration [4]	minimum inhibitory concentration [5]	minimum inhibitory concentration [6]	minimum inhibitory concentration [7]	minimum inhibitory concentration [8]	minimum inhibitory concentration [9]
Clostridioides difficile PCR ribotype 015 isolate #87 (European region: North, country: UK, isolate source: Human, ribotype: 015)	2 µg/mL	16 µg/mL	2 µg/mL	0.008 µg/mL	0.06 µg/mL	< 0.001 µg/mL	2 µg/mL	1 µg/mL	< 0.125 µg/mL
Clostridioides difficile PCR ribotype 015 isolate #304 (European region: East, country: Slovakia, isolate source: Animal, ribotype: 015)	2 µg/mL	0.25 µg/mL	4 µg/mL	0.06 µg/mL	< 0.03 µg/mL	< 0.001 µg/mL	1 µg/mL	0.5 µg/mL	< 0.125 µg/mL
Clostridioides difficile PCR ribotype 015 isolate #305 (European region: East, country: Slovakia, isolate source: Animal, ribotype: 015)	2 µg/mL	8 µg/mL	4 µg/mL	0.015 µg/mL	< 0.03 µg/mL	< 0.001 µg/mL	2 µg/mL	0.5 µg/mL	< 0.125 µg/mL
Clostridioides difficile PCR ribotype 015 isolate #306 (European region: West, country: Netherlands, isolate source: Animal, ribotype: 015)	2 µg/mL	8 µg/mL	2 µg/mL	0.015 µg/mL	< 0.03 µg/mL	< 0.001 µg/mL	2 µg/mL	1 µg/mL	< 0.125 µg/mL
Clostridioides difficile PCR ribotype 015 isolate #307 (European region: West, country: France, isolate source: Animal, ribotype: 015)	2 µg/mL	16 µg/mL	4 µg/mL	0.015 µg/mL	< 0.03 µg/mL	< 0.001 µg/mL	2 µg/mL	0.5 µg/mL	< 0.125 µg/mL
Clostridioides difficile PCR ribotype 016 isolate #88 (European region: East, country: Poland, isolate source: Human, ribotype: 016)	4 µg/mL	8 µg/mL	4 µg/mL	0.03 µg/mL	< 0.03 µg/mL	< 0.001 µg/mL	2 µg/mL	0.5 µg/mL	8 µg/mL
Clostridioides difficile PCR ribotype 017 isolate #89 (European region: West, country: Netherlands, isolate source: Human, ribotype: 017)	4 µg/mL	1 µg/mL	2 µg/mL	0.125 µg/mL	< 0.03 µg/mL	< 0.001 µg/mL	2 µg/mL	0.5 µg/mL	< 0.125 µg/mL
Clostridioides difficile PCR ribotype 018 isolate #90 (European region: East, country: Romania, isolate source: Human, ribotype: 018)	1 µg/mL	16 µg/mL	2 µg/mL	0.008 µg/mL	< 0.03 µg/mL	< 0.001 µg/mL	< 0.125 µg/mL	1 µg/mL	0.25 µg/mL
Clostridioides difficile PCR ribotype 018 isolate #93 (European region: South, country: Italy, isolate source: Human, ribotype: 018)	4 µg/mL	8 µg/mL	4 µg/mL	0.004 µg/mL	< 0.03 µg/mL	> 32 µg/mL	4 µg/mL	0.5 µg/mL	0.25 µg/mL
Clostridioides difficile PCR ribotype 018 isolate #94 (European region: South, country: Italy, isolate source: Human, ribotype: 018)	4 µg/mL	4 µg/mL	4 µg/mL	0.008 µg/mL	< 0.03 µg/mL	16 µg/mL	4 µg/mL	0.5 µg/mL	< 0.125 µg/mL
Clostridioides difficile PCR ribotype 020 isolate #95 (European region: North, country: Sweden, isolate source: Human, ribotype: 020)	2 µg/mL	16 µg/mL	2 µg/mL	0.03 µg/mL	< 0.03 µg/mL	< 0.001 µg/mL	2 µg/mL	1 µg/mL	0.25 µg/mL
Clostridioides difficile PCR ribotype 020 isolate #96 (European region: North, country: Ireland, isolate source: Human, ribotype: 020)	2 µg/mL	16 µg/mL	4 µg/mL	0.015 µg/mL	< 0.03 µg/mL	< 0.001 µg/mL	2 µg/mL	1 µg/mL	< 0.125 µg/mL
Clostridioides difficile PCR ribotype 020 isolate #97 (European region: West, country: France, isolate source: Human, ribotype: 020)	2 µg/mL	8 µg/mL	4 µg/mL	0.015 µg/mL	< 0.03 µg/mL	< 0.001 µg/mL	2 µg/mL	1 µg/mL	< 0.125 µg/mL
Clostridioides difficile PCR ribotype 020 isolate #98 (European region: South, country: Spain, isolate source: Human, ribotype: 020)	4 µg/mL	8 µg/mL	4 µg/mL	0.125 µg/mL	0.06 µg/mL	0.002 µg/mL	2 µg/mL	0.5 µg/mL	0.25 µg/mL
Clostridioides difficile PCR ribotype 020 isolate #99 (European region: North, country: UK, isolate source: Human, ribotype: 020)	2 µg/mL	16 µg/mL	2 µg/mL	0.03 µg/mL	0.06 µg/mL	< 0.001 µg/mL	2 µg/mL	0.5 µg/mL	0.25 µg/mL
Clostridioides difficile PCR ribotype 020 isolate #100 (European region: West, country: Belgium, isolate source: Human, ribotype: 020)	2 µg/mL	16 µg/mL	2 µg/mL	0.03 µg/mL	0.125 µg/mL	< 0.001 µg/mL	2 µg/mL	0.5 µg/mL	0.25 µg/mL
Clostridioides difficile PCR ribotype 020 isolate #101 (European region: North, country: UK, isolate source: Human, ribotype: 020)	2 µg/mL	0.25 µg/mL	2 µg/mL	0.03 µg/mL	0.06 µg/mL	< 0.001 µg/mL	< 0.125 µg/mL	0.5 µg/mL	< 0.125 µg/mL
Clostridioides difficile PCR ribotype 020 isolate #102 (European region: North, country: UK, isolate source: Human, ribotype: 020)	4 µg/mL	8 µg/mL	8 µg/mL	0.06 µg/mL	0.06 µg/mL	< 0.001 µg/mL	2 µg/mL	0.5 µg/mL	0.25 µg/mL
Clostridioides difficile PCR ribotype 020 isolate #103 (European region: North, country: UK, isolate source: Human, ribotype: 020)	4 µg/mL	8 µg/mL	8 µg/mL	0.06 µg/mL	0.06 µg/mL	< 0.001 µg/mL	2 µg/mL	0.5 µg/mL	0.25 µg/mL
Clostridioides difficile PCR ribotype 020 isolate #104 (European region: South, country: Spain, isolate source: Human, ribotype: 020)	2 µg/mL	4 µg/mL	4 µg/mL	0.015 µg/mL	< 0.03 µg/mL	0.002 µg/mL	2 µg/mL	0.5 µg/mL	< 0.125 µg/mL
Clostridioides difficile PCR ribotype 020 isolate #105 (European region: East, country: Poland, isolate source: Human, ribotype: 020)	1 µg/mL	8 µg/mL	2 µg/mL	0.03 µg/mL	0.06 µg/mL	< 0.001 µg/mL	2 µg/mL	1 µg/mL	0.25 µg/mL
Clostridioides difficile PCR ribotype 020 isolate #308 (European region: South, country: Spain, isolate source: Animal, ribotype: 020)	1 µg/mL	16 µg/mL	4 µg/mL	0.06 µg/mL	0.06 µg/mL	< 0.001 µg/mL	2 µg/mL	0.5 µg/mL	0.25 µg/mL
Clostridioides difficile PCR ribotype 020 isolate #309 (European region: South, country: Spain, isolate source: Animal, ribotype: 020)	1 µg/mL	16 µg/mL	4 µg/mL	0.03 µg/mL	0.06 µg/mL	< 0.001 µg/mL	2 µg/mL	0.5 µg/mL	0.25 µg/mL
Clostridioides difficile PCR ribotype 020 isolate #310 (European region: South, country: Italy, isolate source: Animal, ribotype: 020)	2 µg/mL	16 µg/mL	4 µg/mL	0.03 µg/mL	0.06 µg/mL	< 0.001 µg/mL	2 µg/mL	0.5 µg/mL	< 0.125 µg/mL
Clostridioides difficile PCR ribotype 023 isolate #106 (European region: East, country: Poland, isolate source: Human, ribotype: 023)	2 µg/mL	0.25 µg/mL	2 µg/mL	0.03 µg/mL	< 0.03 µg/mL	< 0.001 µg/mL	2 µg/mL	0.5 µg/mL	< 0.125 µg/mL
Clostridioides difficile PCR ribotype 023 isolate #107 (European region: East, country: Poland, isolate source: Human, ribotype: 023)	2 µg/mL	0.5 µg/mL	2 µg/mL	0.03 µg/mL	< 0.03 µg/mL	< 0.001 µg/mL	2 µg/mL	0.5 µg/mL	< 0.125 µg/mL

Some of the entries so far, in markdown:

| Test System | minimum inhibitory concentration [1] | minimum inhibitory concentration [2] | minimum inhibitory concentration [3] | minimum inhibitory concentration [4] | minimum inhibitory concentration [5] | minimum inhibitory concentration [6] | minimum inhibitory concentration [7] | minimum inhibitory concentration [8] | minimum inhibitory concentration [9] |
| --- | --- | --- | --- | --- | --- | --- | --- | --- | --- |
| Clostridioides difficile PCR ribotype 018 isolate #90 (European region: East, country: Romania, isolate source: Human, ribotype: 018) | 1 µg/mL | 16 µg/mL | 2 µg/mL | 0.008 µg/mL | < 0.03 µg/mL | < 0.001 µg/mL | < 0.125 µg/mL | 1 µg/mL | 0.25 µg/mL |
| Clostridioides difficile PCR ribotype 020 isolate #103 (European region: North, country: UK, isolate source: Human, ribotype: 020) | 4 µg/mL | 8 µg/mL | 8 µg/mL | 0.06 µg/mL | 0.06 µg/mL | < 0.001 µg/mL | 2 µg/mL | 0.5 µg/mL | 0.25 µg/mL |
